Assay results taken from the supplement of paper PMC3334620.
In all, about 33,000 sequences were measured (“E-score (-0.5 to 0.5)”: median about -0.0014, highest 2% from about 0.25 on). Some of the results follow.

Molecular target: T1, Cad1 (UniProt P24813)
T1 sequence: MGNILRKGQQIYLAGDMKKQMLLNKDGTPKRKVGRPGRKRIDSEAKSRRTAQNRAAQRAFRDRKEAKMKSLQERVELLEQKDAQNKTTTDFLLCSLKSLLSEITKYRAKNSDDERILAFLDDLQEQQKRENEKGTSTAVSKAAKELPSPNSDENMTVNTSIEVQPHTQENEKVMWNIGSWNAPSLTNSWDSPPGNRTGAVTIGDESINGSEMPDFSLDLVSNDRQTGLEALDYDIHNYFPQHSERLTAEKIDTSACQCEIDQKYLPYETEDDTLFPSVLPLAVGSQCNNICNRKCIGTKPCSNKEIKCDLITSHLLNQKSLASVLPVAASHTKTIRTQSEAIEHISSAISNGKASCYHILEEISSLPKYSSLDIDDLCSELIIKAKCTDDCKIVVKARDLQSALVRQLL
Test: PBM E-score (8-mer binding enrichment) (E-score (-0.5 to 0.5)); higher = stronger / more preferred TF binding
Details: protein concentration: 100 nM; construct: GST-full length
Summary of the method: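 Using PURExpress in vitro transcription/translation, GST-tagged yeast transcription factors were made in full-length or DNA-binding-domain form. These were applied at about 100-200 nM to double-stranded universal all-10-mer Agilent arrays, and bound protein was detected with fluorescent anti-GST. Scans were normalised with masliner before the Universal PBM Analysis Suite assigned E-scores to ungapped eight-base words pooled with their reverse complements.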

Sequence | PBM E-score
CTATGACC | -0.0408
AACTATCG | 0.046
GCGAGATA | 0.156
ACGAGAGC | -0.191
ACTAGCTA | 0.055
AGGGCTAA | 0.0733
CACGGCTA | 0.14
CTGGCCTA | -0.107
GAGCAACA | 0.00421
AGTTACTA | 0.109
CGATCAAG | -0.0491
GACTAGGA | -0.0312
ATACCCGG | -0.0506
GCATAACC | -0.0625
ATGGAAAC | 0.0338
CACTGGGG | -0.237
CAGACAAA | 0.212
GTTTGTAA | 0.137
CCCAGATC | -0.145
CAAGAGTC | 0.00519
ACATTCTG | -0.0173
AACCGCCC | -0.0466
CACAATGC | -0.119
GCGTCGTA | 0.0808
CCTGCAGA | -0.0447

Sequence | PBM E-score
GCAGTGGA | 0.134
ACACTTAG | 0.0262
AGCGGGAC | -0.023
GATTACGA | 0.318
GAAAGCAC | 0.0219
ATGAATCG | 0.00384
AAGGCTAA | 0.0725
GATGGAGC | -0.271
GACTGCCC | -0.108
GACAGGGA | 0.0209
CGAGTTAG | 0.00576
CCCGTAGG | -0.155
AAAGCGTT | 0.0459
ATAGCCGG | 0.0742
CCTCCATA | -0.254
GGCACCCA | -0.173
CTACACAA | 0.1
CGCTCCCA | -0.0429
CCTAACTA | 0.123
GTACCTAC | -0.114
CTCACCGA | -0.12
ACCTGTTA | -0.234
ACTTTTGC | -0.0594
AAGTTGCT | 0.0232
CTAGCGTA | -0.176

Sequence | PBM E-score
AGACTAGC | -0.196
ACCCGCCG | 0.182
GCTAAGGA | -0.141
ACAGGACA | 0.154
CGCACTGA | 0.00933
GGACACTA | 0.0742
AGTATCGA | 0.22
ACACCCAA | 0.124
AGGCATTG | -0.0293
TACGAATA | 0.207
CGACAGCG | -0.19
CTGACGGA | -0.0188
ACACCAAG | -0.0199
AATCGAGC | -0.00781
CACGGCGA | -0.122
CCTTCACA | -0.00607
AACTTCTG | -0.0167
CCGCGTAC | 0.128
ACCGACGC | -0.158
CCAAGGGA | -0.142
CCCACACC | -0.0107
ACTACTCC | -0.0256
GATGTATA | 0.0792
TCCTGGAA | -0.164
AGCAGCAT | -0.0594

Sequence | PBM E-score
CGAGCTGA | 0.197
AGGTGACC | -0.198
GGTGTTCA | -0.0312
ACAGCTCG | 0.0849
GACCTTCA | -0.0815
CGACTGCC | -0.0904
ATTAAACG | 0.12
CTAGTAAA | 0.0669
ACAGGCGA | -0.191
AAAGTCGT | -0.0468
AAGCGGCT | 0.126
ATCCCAAC | -0.116
CAAAACTG | 0.114
CTATCGTC | 0.0408
ACGAAAAC | 0.259
CTGGCTTC | -0.13
TAGCGCTA | 0.089
ATCGGTAC | -0.098
ATCATAGA | 0.146
AAGGACGT | 0.0907
TATGGGGA | 0.0948
ACATGCCG | 0.11
CGAAGGCA | -0.155
ATGTTGGC | 0.0612
AAGTGACC | -0.186

Sequence | PBM E-score
ATTTCAGG | 0.0368
GCCATTGA | 0.0445
CCAACTTA | -0.0068
GAAGCTGC | -0.033
CCTTTGAC | -0.185
CTCTTGGC | -0.181
CGCGTCAC | 0.0475
ATGTCACA | 0.306
TGATGGAA | 0.0626
AATGTGAG | 0.0772
GTTTAAAA | 0.125
AAGACTAA | -0.0994
TCAGCCAA | 0.0189
ATCTCGCA | 0.0847
AGAATGCG | 0.0274
AGCAGCCG | 0.0809
CGGTTGAC | -0.106
AGATTCTG | -0.0272
GATTGCGA | 0.141
CATATCAG | -0.00093
CAGACCCA | -0.175
CTGCTAGA | -0.0427
CGTAAAGA | -0.0421
CCCGGCCG | -0.0863
GCGTCCTA | 0.139

Not a retest: entries from further up.
Sequence | PBM E-score
AGGGCTAA | 0.0733
CACGGCTA | 0.14

(listing goes on)

Sequence | PBM E-score
AATACTGG | 0.0126
CCCAGCAC | -0.127
CATACATC | 0.143
GGGTACCC | -0.345
CAAAGCCA | -0.0984
AGGGGAGG | -0.0822
ATCCACAT | 0.0877
AAACAGTG | 0.0909
CGCGGTGC | 0.0246
CTTCCTGA | 0.0545
AGCGTCCA | 0.0957
AATATTTG | 0.255
CAACTTCG | 0.0196
ACCCGACA | -0.0696
CCTATATA | 0.0293
CGATTGAC | 0.156
ATACGGGA | -0.193
AGACTCCG | -0.117
CAAGCTAA | -0.198
ACGCCAGA | -0.0478
AGTTTCGC | 0.155
ACCTTAAC | 0.0691
GGTGTATA | -0.161
GATGCCAC | -0.103
ACCAGCCC | -0.142

Part of the list above, as comma-separated lines:
Sequence,PBM E-score
CAAAGCCA,-0.0984
ATCCACAT,0.0877
CGCGGTGC,0.0246
CTTCCTGA,0.0545
AATATTTG,0.255
ATACGGGA,-0.193

Further records

Sequence | PBM E-score
ATTAAGAG | -0.00018
AACCGTCC | -0.089
AGCGCGGG | 0.158
CCGAAGCA | -0.106
CAACATTG | 0.0388
CACCACAC | 0.151
CGTGACAG | 0.0078
ATCCGACA | 0.0887
AGACGATG | 0.104
GACTTTCC | -0.0901
CATGTAGA | 0.0561
GCTGGATA | 0.0235
ATCTGCAC | -0.00473
CCCGCTAA | -0.205
ACCAGGCC | 0.212
TAAATCGA | 0.16
GAGGAAAC | -0.0943
CAGTGGGG | -0.311
CTGCTGTC | -0.0811
ATCGAGTC | 0.0129
AACAGATA | 0.175
ACCTATAA | -0.067
